Test results: the supplement of paper PMC10849652
Some of the results follow.

Protein sequences, listed by entry. Tags and fused reporters are not part of them. Lines headed by an entry give the natural chain unless they say otherwise; changes in a name come on top.
UniProt Q15800: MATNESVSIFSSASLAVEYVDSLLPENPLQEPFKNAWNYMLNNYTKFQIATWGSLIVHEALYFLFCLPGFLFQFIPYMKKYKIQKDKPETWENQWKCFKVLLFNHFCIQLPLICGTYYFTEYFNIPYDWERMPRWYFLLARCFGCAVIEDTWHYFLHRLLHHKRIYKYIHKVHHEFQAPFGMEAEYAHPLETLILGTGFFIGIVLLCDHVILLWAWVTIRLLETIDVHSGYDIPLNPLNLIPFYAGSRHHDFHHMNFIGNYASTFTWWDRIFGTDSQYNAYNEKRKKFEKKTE
UniProt P60660, whole entry, looked up: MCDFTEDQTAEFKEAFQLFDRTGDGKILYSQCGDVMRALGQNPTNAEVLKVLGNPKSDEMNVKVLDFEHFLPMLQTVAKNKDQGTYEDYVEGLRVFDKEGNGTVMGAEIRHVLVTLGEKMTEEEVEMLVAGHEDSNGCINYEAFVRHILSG
UniProt P13995: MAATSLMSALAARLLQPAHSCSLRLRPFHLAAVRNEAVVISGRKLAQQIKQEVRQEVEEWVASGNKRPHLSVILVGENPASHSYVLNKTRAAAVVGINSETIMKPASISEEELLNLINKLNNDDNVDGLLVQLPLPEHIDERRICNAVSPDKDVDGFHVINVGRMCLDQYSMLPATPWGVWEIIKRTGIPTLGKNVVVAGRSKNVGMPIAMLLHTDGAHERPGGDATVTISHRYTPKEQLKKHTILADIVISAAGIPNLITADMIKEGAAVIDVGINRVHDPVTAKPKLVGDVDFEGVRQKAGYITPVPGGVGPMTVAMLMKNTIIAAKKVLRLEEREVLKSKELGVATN
UniProt Q13496: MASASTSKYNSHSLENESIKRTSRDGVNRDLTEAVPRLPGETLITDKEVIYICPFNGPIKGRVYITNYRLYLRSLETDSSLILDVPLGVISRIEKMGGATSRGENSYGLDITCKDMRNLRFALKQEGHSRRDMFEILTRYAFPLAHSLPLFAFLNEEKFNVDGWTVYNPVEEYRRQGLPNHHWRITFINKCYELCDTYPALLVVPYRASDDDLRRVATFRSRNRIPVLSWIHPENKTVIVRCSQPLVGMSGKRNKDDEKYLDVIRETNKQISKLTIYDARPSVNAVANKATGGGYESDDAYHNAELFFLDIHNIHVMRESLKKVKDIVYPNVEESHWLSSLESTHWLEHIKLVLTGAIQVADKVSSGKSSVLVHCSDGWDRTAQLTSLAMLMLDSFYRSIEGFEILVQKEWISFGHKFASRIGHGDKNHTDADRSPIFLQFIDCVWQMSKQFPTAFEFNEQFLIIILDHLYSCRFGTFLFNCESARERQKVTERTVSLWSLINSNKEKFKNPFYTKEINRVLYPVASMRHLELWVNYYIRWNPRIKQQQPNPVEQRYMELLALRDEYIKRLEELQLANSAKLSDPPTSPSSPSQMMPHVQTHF
UniProt Q765P7: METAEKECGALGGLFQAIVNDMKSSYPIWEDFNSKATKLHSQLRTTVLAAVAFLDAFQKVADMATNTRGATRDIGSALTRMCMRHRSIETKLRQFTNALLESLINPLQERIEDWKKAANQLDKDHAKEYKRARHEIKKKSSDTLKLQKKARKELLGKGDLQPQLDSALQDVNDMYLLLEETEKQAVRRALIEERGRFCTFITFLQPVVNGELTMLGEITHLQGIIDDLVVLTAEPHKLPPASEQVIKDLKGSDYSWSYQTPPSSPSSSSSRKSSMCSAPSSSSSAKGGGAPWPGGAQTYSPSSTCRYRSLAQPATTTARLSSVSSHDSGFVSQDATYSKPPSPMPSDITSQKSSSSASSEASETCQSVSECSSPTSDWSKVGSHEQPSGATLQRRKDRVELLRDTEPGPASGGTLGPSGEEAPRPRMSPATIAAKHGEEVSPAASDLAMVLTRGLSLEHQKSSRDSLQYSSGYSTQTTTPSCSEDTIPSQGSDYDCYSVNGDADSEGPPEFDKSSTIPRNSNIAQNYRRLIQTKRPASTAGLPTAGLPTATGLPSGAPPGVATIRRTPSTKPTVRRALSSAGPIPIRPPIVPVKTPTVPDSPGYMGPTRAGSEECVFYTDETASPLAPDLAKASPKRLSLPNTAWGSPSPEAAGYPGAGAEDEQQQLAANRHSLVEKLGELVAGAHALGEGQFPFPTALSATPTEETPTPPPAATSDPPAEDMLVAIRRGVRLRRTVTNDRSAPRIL
UniProt Q96S97: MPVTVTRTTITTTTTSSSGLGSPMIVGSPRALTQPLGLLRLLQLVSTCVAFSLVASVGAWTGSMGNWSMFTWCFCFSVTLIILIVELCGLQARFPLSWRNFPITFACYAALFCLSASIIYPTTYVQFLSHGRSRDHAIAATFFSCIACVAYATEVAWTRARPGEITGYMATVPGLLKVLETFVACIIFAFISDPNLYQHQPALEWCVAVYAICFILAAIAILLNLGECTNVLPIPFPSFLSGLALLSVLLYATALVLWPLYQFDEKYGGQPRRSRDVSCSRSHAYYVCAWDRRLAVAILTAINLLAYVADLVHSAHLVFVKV
UniProt P00156: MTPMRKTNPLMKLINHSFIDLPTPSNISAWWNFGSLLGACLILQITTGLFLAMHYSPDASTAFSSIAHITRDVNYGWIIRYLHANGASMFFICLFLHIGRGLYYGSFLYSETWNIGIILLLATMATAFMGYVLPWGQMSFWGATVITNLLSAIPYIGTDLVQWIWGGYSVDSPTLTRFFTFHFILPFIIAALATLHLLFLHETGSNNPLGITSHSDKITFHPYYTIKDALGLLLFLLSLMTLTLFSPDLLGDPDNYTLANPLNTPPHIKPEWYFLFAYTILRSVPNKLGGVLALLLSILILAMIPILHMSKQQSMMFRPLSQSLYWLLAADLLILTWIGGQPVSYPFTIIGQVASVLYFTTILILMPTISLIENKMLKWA
UniProt P14649: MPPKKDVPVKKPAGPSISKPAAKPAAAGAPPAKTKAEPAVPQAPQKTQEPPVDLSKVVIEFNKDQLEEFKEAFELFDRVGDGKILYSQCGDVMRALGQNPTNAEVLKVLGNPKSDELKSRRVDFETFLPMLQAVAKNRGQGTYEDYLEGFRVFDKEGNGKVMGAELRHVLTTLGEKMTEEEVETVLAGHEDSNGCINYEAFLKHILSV
UniProt P35580, whole entry, looked up: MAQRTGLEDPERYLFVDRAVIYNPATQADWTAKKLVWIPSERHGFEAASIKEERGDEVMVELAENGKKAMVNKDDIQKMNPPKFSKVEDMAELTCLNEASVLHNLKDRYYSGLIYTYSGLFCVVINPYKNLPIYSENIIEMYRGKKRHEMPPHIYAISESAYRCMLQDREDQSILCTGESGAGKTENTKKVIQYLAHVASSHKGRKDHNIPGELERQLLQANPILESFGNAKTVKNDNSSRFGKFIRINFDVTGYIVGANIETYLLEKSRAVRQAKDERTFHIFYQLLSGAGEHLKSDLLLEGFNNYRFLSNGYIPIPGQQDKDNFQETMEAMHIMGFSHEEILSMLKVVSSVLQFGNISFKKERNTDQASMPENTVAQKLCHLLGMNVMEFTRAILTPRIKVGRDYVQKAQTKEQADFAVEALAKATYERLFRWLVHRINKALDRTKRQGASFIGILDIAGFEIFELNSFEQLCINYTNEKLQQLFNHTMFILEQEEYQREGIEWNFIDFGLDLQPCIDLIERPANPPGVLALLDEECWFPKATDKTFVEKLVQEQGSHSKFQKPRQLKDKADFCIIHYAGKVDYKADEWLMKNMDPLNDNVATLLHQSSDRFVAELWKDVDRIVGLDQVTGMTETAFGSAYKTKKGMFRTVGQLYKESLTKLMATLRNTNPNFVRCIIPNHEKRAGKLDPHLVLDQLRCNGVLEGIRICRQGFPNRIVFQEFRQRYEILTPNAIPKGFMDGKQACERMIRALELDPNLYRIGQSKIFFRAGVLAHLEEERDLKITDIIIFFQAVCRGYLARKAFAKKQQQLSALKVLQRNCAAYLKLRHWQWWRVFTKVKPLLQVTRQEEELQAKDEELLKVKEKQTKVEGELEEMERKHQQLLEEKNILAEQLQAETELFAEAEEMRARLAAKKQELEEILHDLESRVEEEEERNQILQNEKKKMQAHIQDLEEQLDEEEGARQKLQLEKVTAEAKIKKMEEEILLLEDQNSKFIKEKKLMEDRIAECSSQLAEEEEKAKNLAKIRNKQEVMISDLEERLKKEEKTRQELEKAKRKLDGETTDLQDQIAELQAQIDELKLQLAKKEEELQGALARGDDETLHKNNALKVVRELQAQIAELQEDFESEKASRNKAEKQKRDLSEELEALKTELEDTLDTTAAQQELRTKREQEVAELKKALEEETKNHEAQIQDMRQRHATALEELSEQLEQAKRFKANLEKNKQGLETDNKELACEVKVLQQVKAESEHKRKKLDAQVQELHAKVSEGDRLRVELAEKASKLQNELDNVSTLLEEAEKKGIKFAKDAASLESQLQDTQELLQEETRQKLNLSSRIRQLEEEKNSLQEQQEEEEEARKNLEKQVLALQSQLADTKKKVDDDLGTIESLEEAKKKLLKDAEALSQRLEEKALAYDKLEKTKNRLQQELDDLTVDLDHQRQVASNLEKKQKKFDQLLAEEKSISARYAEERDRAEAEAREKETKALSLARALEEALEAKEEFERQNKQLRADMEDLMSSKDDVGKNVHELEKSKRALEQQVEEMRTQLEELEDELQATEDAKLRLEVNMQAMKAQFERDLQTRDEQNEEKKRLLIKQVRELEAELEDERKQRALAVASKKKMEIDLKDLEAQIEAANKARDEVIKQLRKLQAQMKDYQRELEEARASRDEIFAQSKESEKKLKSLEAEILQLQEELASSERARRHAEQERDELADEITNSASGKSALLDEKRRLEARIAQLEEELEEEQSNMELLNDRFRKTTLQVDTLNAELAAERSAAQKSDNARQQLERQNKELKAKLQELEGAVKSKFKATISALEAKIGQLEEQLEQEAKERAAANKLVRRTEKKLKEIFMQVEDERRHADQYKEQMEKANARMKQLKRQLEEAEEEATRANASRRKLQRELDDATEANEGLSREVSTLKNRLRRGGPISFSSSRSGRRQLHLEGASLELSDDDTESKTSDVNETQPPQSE
UniProt Q13615: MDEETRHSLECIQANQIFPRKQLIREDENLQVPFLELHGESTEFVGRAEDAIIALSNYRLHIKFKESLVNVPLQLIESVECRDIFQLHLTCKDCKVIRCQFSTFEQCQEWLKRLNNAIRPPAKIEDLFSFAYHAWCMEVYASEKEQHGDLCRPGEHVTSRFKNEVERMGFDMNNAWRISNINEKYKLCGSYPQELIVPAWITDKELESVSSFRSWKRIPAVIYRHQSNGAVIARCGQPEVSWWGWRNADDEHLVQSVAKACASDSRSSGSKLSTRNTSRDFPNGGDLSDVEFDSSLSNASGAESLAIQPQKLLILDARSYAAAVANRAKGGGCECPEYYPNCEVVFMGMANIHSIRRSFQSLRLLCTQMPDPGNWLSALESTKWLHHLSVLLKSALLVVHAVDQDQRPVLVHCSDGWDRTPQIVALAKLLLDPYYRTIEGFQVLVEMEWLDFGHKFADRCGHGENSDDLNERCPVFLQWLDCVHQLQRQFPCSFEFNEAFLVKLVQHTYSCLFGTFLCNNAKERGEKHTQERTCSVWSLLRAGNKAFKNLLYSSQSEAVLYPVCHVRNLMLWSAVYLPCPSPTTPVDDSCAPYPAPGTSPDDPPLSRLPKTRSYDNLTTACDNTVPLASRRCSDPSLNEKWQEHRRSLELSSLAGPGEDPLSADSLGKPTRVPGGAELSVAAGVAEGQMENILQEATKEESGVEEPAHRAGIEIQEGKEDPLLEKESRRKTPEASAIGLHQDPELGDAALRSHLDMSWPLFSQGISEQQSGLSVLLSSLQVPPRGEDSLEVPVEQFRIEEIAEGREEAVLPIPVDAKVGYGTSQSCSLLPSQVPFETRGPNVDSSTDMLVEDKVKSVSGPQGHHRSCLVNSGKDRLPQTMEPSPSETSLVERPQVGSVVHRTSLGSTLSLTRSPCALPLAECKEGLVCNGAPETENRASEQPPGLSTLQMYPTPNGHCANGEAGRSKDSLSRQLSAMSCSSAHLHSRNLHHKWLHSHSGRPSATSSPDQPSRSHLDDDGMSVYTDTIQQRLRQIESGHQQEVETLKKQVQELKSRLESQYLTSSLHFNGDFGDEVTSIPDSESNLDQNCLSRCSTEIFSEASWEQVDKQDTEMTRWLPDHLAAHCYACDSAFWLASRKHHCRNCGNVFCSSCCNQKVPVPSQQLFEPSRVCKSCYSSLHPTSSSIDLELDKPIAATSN

Experiments:
Assay in all cases: log2 fold change, soluble protein after heating vs DMSO (PISA); higher = thermal stabilisation; K562 cells, 10 uM, 30 min; active = over 0.2 and 3.5 SD of the protein, either way, in both replicates (recomputed)
bafetinib = compound: Cc1ccc(NC(=O)c2ccc(CN3CC[C@H](N(C)C)C3)c(C(F)(F)F)c2)cc1Nc1nccc(-c2cncnc2)n1 [bafetinib]
Outline: (§1)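 K562 cells at 2×10^6 cells/mL were treated for 30 min with 10 μM compound, and aliquots were heated for 3 min over 48°C-58°C before pooling. Extraction used PBS with 0.5% NP-40 at 4°C, and soluble protein was the supernatant after 21,000xg for 90 min, measured by TMTpro 16plex LC-MS/MS with channel sums equalised. Thermal stability values, relative to control samples and from duplicates, are log2 fold changes.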

[1] = compound: Cc1cccc(CC(=O)N2CCc3c2ccc(-c2cn(C)c4ncnc(N)c24)c3F)n1
Outline: as §1

nilotinib = compound: Cc1cn(-c2cc(NC(=O)c3ccc(C)c(Nc4nccc(-c5cccnc5)n4)c3)cc(C(F)(F)F)c2)cn1 [nilotinib]
Outline: as §1

[2] = compound: Cc1nc(Nc2n[nH]c3c2CN(C(=O)N[C@H](CN(C)C)c2ccccc2)C3(C)C)c2sccc2n1
Outline: as §1

dasatinib = compound: Cc1nc(Nc2ncc(C(=O)Nc3c(C)cccc3Cl)s2)cc(N2CCN(CCO)CC2)n1 [dasatinib]
Outline: as §1

[3] = compound: Cc1ncc(-c2ccnc(Nc3ccc(S(C)(=O)=O)cc3)n2)n1C(C)C
Outline: as §1

[4] = compound: Cn1cc(-c2ccc3c(c2)CCN3C(=O)Cc2cccc(C(F)(F)F)c2)c2c(N)ncnc21
Outline: as §1

[5] = compound: Cn1cc(-c2ccc3nnc(C(F)(F)c4ccc5ncccc5c4)n3n2)cn1
Outline: as §1

tipifarnib = compound: Cn1cncc1[C@@](N)(c1ccc(Cl)cc1)c1ccc2c(c1)c(-c1cccc(Cl)c1)cc(=O)n2C [tipifarnib]
Outline: as §1

mubritinib = compound: FC(F)(F)c1ccc(/C=C/c2nc(COc3ccc(CCCCn4ccnn4)cc3)co2)cc1 [mubritinib]
Outline: as §1

[6] = compound: NC(=O)Nc1cc(-c2cccc(F)c2)sc1C(=O)N[C@H]1CCCNC1
Outline: as §1

[7] = compound: NC(=O)c1cnc(N[C@@H]2CCCC[C@@H]2N)nc1Nc1cccc(-n2nccn2)c1
Outline: as §1

[8] = compound: NC1(c2ccc(-c3nc4ccn5c(=O)[nH]nc5c4cc3-c3ccccc3)cc2)CCC1
Outline: as §1

[9] = compound: NCC(=O)Nc1ccc(-n2nc(C(F)(F)F)cc2-c2ccc3c(ccc4ccccc43)c2)cc1
Outline: as §1

entinostat = compound: Nc1ccccc1NC(=O)c1ccc(CNC(=O)OCc2cccnc2)cc1 [entinostat]
Outline: as §1

vorinostat = compound: O=C(CCCCCCC(=O)Nc1ccccc1)NO [vorinostat]
Outline: as §1

citarinostat = compound: O=C(CCCCCCNC(=O)c1cnc(N(c2ccccc2)c2ccccc2Cl)nc1)NO [citarinostat]
Outline: as §1

silmitasertib = compound: O=C(O)c1ccc2c(c1)nc(Nc1cccc(Cl)c1)c1ccncc12 [silmitasertib]
Outline: as §1

[10] = compound: O=C1NC(=O)C(c2cnc3ccccn23)=C1c1cn2c3c(cc(F)cc13)CN(C(=O)N1CCCCC1)CC2
Outline: as §1

[11] = compound: c1cc(OCCN2CCCCC2)cc(-c2n[nH]c3ccc(-c4nnc[nH]4)cc23)c1
Outline: as §1

Measured: log2 fold change

MSMO1 (UniProt Q15800)
inactive: bafetinib -0.135 | [1] 0.033 | nilotinib 0 | [2] -0.001 | dasatinib 0.023 | [3] -0.034 | [4] 0.022 | [5] 0 | tipifarnib 0.117 | mubritinib 0.049 | [6] -0.015 | [7] -0.024 | [8] -0.037 | [9] -0.034 | entinostat -0.014 | vorinostat 0.112 | citarinostat -0.063 | silmitasertib 0.044 | [10] -0.064 | [11] 0.043

MRPL58 (UniProt Q14197)
inactive: bafetinib 0.129 | [1] 0.021 | nilotinib -0.058 | [2] 0.152 | dasatinib 0.005 | [3] -0.034 | [4] -0.086 | [5] 0.002 | tipifarnib 0.077 | mubritinib 0.038 | [6] -0.045 | [7] 0.037 | [8] 0.059 | [9] 0.054 | entinostat 0.001 | vorinostat -0.013 | citarinostat -0.026 | silmitasertib 0.011 | [10] 0.017 | [11] -0.049

MRPS25 (UniProt P82663)
inactive: bafetinib 0.125 | [1] 0.158 | nilotinib -0.144 | [2] -0.043 | dasatinib -0.105 | [3] 0.044 | [4] 0.037 | [5] 0 | tipifarnib -0.077 | mubritinib 0.069 | [6] -0.031 | [7] 0.046 | [8] 0.04 | [9] 0.04 | entinostat 0.021 | vorinostat -0.036 | citarinostat 0.073 | silmitasertib -0.053 | [10] 0.062 | [11] -0.074

MYO1C (UniProt O00159)
inactive: bafetinib -0.128 | [1] 0.051 | nilotinib -0.119 | [2] -0.099 | dasatinib -0.17 | [3] -0.049 | [4] 0.015 | [5] 0.015 | tipifarnib -0.043 | mubritinib 0.034 | [6] 0 | [7] -0.002 | [8] 0.171 | [9] -0.116 | entinostat -0.028 | vorinostat 0.04 | citarinostat -0.044 | silmitasertib 0.195 | [10] 0.053 | [11] -0.087

MYL6 isoform 2 (UniProt P60660)
inactive: bafetinib -0.066 | [1] -0.001 | nilotinib -0.03 | [2] -0.073 | dasatinib 0.016 | [3] -0.025 | [4] 0.015 | [5] -0.011 | tipifarnib -0.007 | mubritinib 0.044 | [6] 0.033 | [7] -0.01 | [8] -0.079 | [9] -0.018 | entinostat 0.11 | vorinostat 0 | citarinostat -0.002 | silmitasertib 0.028 | [10] -0.076 | [11] 0.007

MTHFD2 (UniProt P13995)
inactive: bafetinib -0.056 | [1] 0.018 | nilotinib -0.023 | [2] -0.011 | dasatinib -0.017 | [3] -0.044 | [4] 0.019 | [5] 0.035 | tipifarnib -0.037 | mubritinib 0.109 | [6] -0.076 | [7] 0.002 | [8] -0.119 | [9] -0.036 | entinostat 0.008 | vorinostat 0.02 | citarinostat 0.02 | silmitasertib -0.023 | [10] -0.048 | [11] 0.001

MRPS9 (UniProt P82933)
inactive: bafetinib 0.106 | [1] 0.067 | nilotinib -0.094 | [2] 0.008 | dasatinib -0.023 | [3] -0.024 | [4] -0.073 | [5] 0.057 | tipifarnib -0.025 | mubritinib 0.085 | [6] -0.03 | [7] -0.011 | [8] -0.117 | [9] 0.018 | entinostat 0.008 | vorinostat 0.167 | citarinostat 0.035 | silmitasertib -0.083 | [10] -0.019 | [11] -0.081

MTM1 (UniProt Q13496)
inactive: bafetinib -0.016 | [1] 0.013 | nilotinib 0.036 | [2] 0.021 | dasatinib -0.051 | [3] -0.049 | [4] 0.045 | [5] -0.041 | tipifarnib -0.025 | mubritinib 0.066 | [6] -0.013 | [7] 0.084 | [8] -0.058 | [9] 0.032 | entinostat -0.007 | vorinostat 0.037 | citarinostat 0.02 | silmitasertib 0.049 | [10] 0.01 | [11] -0.023

Random excerpt: 2 entries already listed
MRPS9 (UniProt P82933)
inactive: bafetinib 0.106 | [1] 0.067 | nilotinib -0.094 | [2] 0.008 | dasatinib -0.023 | [3] -0.024 | [4] -0.073 | [5] 0.057 | tipifarnib -0.025 | mubritinib 0.085 | [6] -0.03 | [7] -0.011 | [8] -0.117 | [9] 0.018 | entinostat 0.008 | vorinostat 0.167 | citarinostat 0.035 | silmitasertib -0.083 | [10] -0.019 | [11] -0.081

MTM1 (UniProt Q13496)
inactive: bafetinib -0.016 | [1] 0.013 | nilotinib 0.036 | [2] 0.021 | dasatinib -0.051 | [3] -0.049 | [4] 0.045 | [5] -0.041 | tipifarnib -0.025 | mubritinib 0.066 | [6] -0.013 | [7] 0.084 | [8] -0.058 | [9] 0.032 | entinostat -0.007 | vorinostat 0.037 | citarinostat 0.02 | silmitasertib 0.049 | [10] 0.01 | [11] -0.023

Later entries

MTSS2 (UniProt Q765P7)
inactive: bafetinib -0.023 | [1] -0.036 | nilotinib 0.044 | [2] -0.058 | dasatinib -0.002 | [3] -0.132 | [4] 0.061 | [5] -0.023 | tipifarnib 0.037 | mubritinib 0.105 | [6] 0.117 | [7] -0.036 | [8] -0.03 | [9] 0.001 | entinostat -0.025 | vorinostat 0 | citarinostat -0.072 | silmitasertib -0.019 | [10] -0.144 | [11] 0.102

MYADM (UniProt Q96S97)
inactive: bafetinib 0.105 | [1] 0.262 | nilotinib 0.112 | [2] -0.021 | dasatinib 0.022 | [3] 0.043 | [4] -0.014 | [5] 0.104 | tipifarnib 0.053 | mubritinib -0.122 | [6] 0 | [7] -0.112 | [8] 0.003 | [9] -0.041 | entinostat 0.09 | vorinostat 0.036 | citarinostat 0.045 | silmitasertib 0.054 | [10] 0.117 | [11] -0.106

MT-CYB (UniProt P00156)
inactive: bafetinib 0.005 | [1] 0.013 | nilotinib 0.182 | [2] -0.024 | dasatinib 0.051 | [3] 0.193 | [4] 0.106 | [5] 0.029 | tipifarnib 0.159 | mubritinib -0.165 | [6] -0.112 | [7] -0.063 | [8] 0.109 | [9] 0.024 | entinostat -0.007 | vorinostat 0.075 | citarinostat 0.076 | silmitasertib 0.113 | [10] 0.189 | [11] -0.372

MRPS30 (UniProt Q9NP92)
inactive: bafetinib 0.272 | [1] 0.114 | nilotinib -0.073 | [2] 0.095 | dasatinib 0.015 | [3] 0.036 | [4] -0.125 | [5] -0.08 | tipifarnib 0.147 | mubritinib 0.071 | [6] 0.086 | [7] 0.138 | [8] -0.022 | [9] 0.027 | entinostat -0.075 | vorinostat -0.038 | citarinostat -0.004 | silmitasertib -0.028 | [10] 0.025 | [11] 0.092

MYL6B (UniProt P14649)
inactive: bafetinib -0.04 | [1] -0.011 | nilotinib 0.019 | [2] -0.03 | dasatinib 0.008 | [3] -0.005 | [4] 0.045 | [5] 0.026 | tipifarnib 0.011 | mubritinib 0.012 | [6] -0.02 | [7] -0.024 | [8] -0.031 | [9] 0.01 | entinostat 0 | vorinostat 0.005 | citarinostat 0.007 | silmitasertib 0.028 | [10] -0.04 | [11] -0.015

MYH10 isoform 3 (UniProt P35580)
inactive: bafetinib -0.046 | [1] 0.033 | nilotinib -0.049 | [2] -0.001 | dasatinib -0.057 | [3] 0.004 | [4] 0.056 | [5] 0.011 | tipifarnib -0.083 | mubritinib 0.059 | [6] 0.014 | [7] -0.026 | [8] -0.102 | [9] -0.035 | entinostat 0.019 | vorinostat 0.004 | citarinostat 0.041 | silmitasertib -0.008 | [10] -0.036 | [11] 0.013

MTMR3 (UniProt Q13615)
inactive: bafetinib 0.122 | [1] -0.034 | nilotinib 0.012 | [2] -0.055 | dasatinib -0.057 | [3] -0.024 | [4] 0.136 | [5] 0.015 | tipifarnib -0.049 | mubritinib 0.042 | [6] 0.072 | [7] 0.03 | [8] -0.11 | [9] -0.139 | entinostat -0.062 | vorinostat -0.029 | citarinostat 0.087 | silmitasertib 0.002 | [10] -0.009 | [11] 0.009

MUC1, A0A087WWM1
inactive: bafetinib 0.001 | [1] -0.138 | nilotinib 0.004 | [2] -0.12 | dasatinib 0.053 | [3] -0.033 | [4] 0.075 | [5] -0.006 | tipifarnib -0.011 | mubritinib 0.295 | [6] 0.038 | [7] 0.124 | [8] -0.095 | [9] 0 | entinostat 0.01 | vorinostat 0.01 | citarinostat 0.07 | silmitasertib 0.055 | [10] 0.03 | [11] -0.097
